{"sequences": {"note": "Protein sequences, listed by entry. Tags and fused reporters are not part of them.", "UniProt P05412": "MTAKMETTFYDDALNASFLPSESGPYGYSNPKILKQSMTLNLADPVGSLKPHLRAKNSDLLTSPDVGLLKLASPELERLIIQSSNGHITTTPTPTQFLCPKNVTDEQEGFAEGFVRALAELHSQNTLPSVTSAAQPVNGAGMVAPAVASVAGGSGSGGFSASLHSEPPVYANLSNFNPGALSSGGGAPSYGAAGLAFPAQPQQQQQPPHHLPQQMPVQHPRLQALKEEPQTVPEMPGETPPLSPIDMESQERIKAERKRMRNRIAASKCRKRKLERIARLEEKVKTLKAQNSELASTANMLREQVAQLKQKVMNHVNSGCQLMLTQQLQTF", "UniProt P10275": "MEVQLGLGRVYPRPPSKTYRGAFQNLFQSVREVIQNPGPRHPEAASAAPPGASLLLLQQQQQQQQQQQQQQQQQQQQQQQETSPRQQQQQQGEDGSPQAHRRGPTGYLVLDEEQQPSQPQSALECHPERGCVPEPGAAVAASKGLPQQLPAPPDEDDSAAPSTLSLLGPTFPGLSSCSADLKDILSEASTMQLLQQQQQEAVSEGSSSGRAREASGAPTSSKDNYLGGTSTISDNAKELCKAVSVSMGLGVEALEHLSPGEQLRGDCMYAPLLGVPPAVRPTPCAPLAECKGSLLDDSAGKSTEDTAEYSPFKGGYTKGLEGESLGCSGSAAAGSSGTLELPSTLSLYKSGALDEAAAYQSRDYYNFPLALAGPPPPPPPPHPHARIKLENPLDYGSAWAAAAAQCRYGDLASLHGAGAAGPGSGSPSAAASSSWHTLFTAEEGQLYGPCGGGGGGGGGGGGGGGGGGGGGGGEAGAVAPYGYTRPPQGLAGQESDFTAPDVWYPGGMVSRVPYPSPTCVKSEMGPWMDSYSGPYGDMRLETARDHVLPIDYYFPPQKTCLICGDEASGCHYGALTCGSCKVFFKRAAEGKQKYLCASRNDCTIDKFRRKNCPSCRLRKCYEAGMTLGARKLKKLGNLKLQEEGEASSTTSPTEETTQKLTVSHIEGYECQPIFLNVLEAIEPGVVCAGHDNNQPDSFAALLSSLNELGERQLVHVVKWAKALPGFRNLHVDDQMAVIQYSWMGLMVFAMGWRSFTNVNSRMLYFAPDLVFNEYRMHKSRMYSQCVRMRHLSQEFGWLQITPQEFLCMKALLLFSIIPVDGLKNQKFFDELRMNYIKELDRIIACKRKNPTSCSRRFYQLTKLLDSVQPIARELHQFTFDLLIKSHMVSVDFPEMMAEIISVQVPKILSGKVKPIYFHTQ"}, "source": "paper PMC8416735", "biological_target": "c-Jun, endogenous in PC3-oe-AR cells (human (endogenous in PC3)) (UniProt P05412)", "experiment": "co-IP; lysates of LNCaP-oe-cJun and PC3-oe-AR cells; 5 ug anti-cJun or same-host-sourced anti-IgG antibody at 4°C overnight, protein A/G agarose beads 2 h at 4°C; immunoblotting with anti-AR, anti-DNMT1 and anti-cJun", "note": "Results are given in words; binding and its absence hold for the method and conditions named. Binding seen in cells or lysates may run through a third protein. Some entries that bind do so weakly or less than the wild type.", "data": [{"substance": "androgen receptor, overexpressed in PC3 cells by lentiviral transduction (PC3-oe-AR) (from UniProt P10275 1-920)", "values": [{"measurement": "binding", "value": "binds"}]}]}
